Patent US20210261642A1, “SOLUBILITY OF GLP-1 PEPTIDE” (Novo Nordisk A/S, priority 2017, published 2021)
This continues a long series; more values of the same kind are listed elsewhere.

Experiment: Assay (I): Determination of Solubility (96-well plate, pH 3.0-11.0, organic solvent 0-70% w/w, UV absorption at 280 nm)
Format: physicochemical
Protocol: Assay (I): Determination of Solubility
96-Well Plate Preparation
96-well plates containing target peptide in a solid form were prepared in one of two ways:
Method 1 (evaporation): Addition of 100 μl stock solution of said peptide at a concentration of 4-6 mg/ml to each well of a 96-well half area plate (150 μl well size). Subsequently the solvent was evaporated by applying a vacuum until the solvent was completely removed.
Method 2 (precipitation): Addition of a certain volume of a stock solution of said peptide containing to each well of a 96-well half area plate followed by the addition of a certain volume of concentrated phosphoric acid to obtain a pH of 4.6 followed by addition of a certain volume of ethanol resulting in a final ethanol concentration of 20% v/v. Subsequently the plate was stored at 4° C. for 1 h and then centrifuged at 4,000 rpm for 20 min. Finally the supernatant was removed. The concentration of the stock solution was chosen in a way that the final amount of peptide after supernatant removal was >0.4 mg per well.
In both cases the stock solution was prepared by adding de-ionized water to a certain amount of powder of said peptide followed by a stepwise addition of small amounts of a concentrated sodium hydroxide solution until said peptide was completely in solution.
To determine solubility of a target peptide at different pH and organic solvent concentrations, two different buffer systems were used in independent experiments to cover the whole range from pH 3.0 to pH 11.0. Buffer system 1 covers pH 3.0-7.5 and buffer system 2 covers pH 7.5-11.0. For each buffer system 96 different solvent compositions were premixed in the following way: • 1. A low pH buffer (adjusted to either pH 3.0 or pH 7.5) and a high pH buffer (adjusted to either pH 7.5 or pH 11.0) were mixed at 8 different ratios to obtain values between pH 3.0 and pH 7.5 or pH 7.5 and pH 11.0, respectively. The total volume after mixing was 300 μl. • 2. 12 different amounts of organic solvent were then added to these buffers to obtain organic solvent (e.g. ethanol) concentrations between 0 and 70% w/w. • 3. Water was then added to obtain a total weight of 1.0 g of solvent in each well.
After preparing the 96 different solvent systems, 100 μl of each system was transferred to the 96-well plate containing the solid form of the target peptide (prepared as described in the section “96-well plate preparation”). The plate was then stored at a given temperature (between 5° C. and 70° C.) for a given time on a rotating shaker set to 400 rpm. At regular time intervals the plate was centrifuged (4,000 rpm for 10 min) and a 10 μl sample was taken from each well. The samples were then analysed by UV absorption at 280 nm for peptide quantification. Peptide concentration results are given as UV absorption at 280 nm of the sample subtracted UV absorption at 280 nm of a well comprising 10 μl water.
The buffers used were as follows: • Buffer system 1 (for the pH range from pH 3.0-7.5)
• Buffer system 2 (for the pH ranae from pH 7.5-11.0)
Solubility of liraglutide was determined using Assay (I) described herein. Liraglutide was prepared using Method 1 (evaporation) or Method 2 (precipitation) as described in subsection “96-well plate preparation”.

[1] = MeCN 50.9% w/w, pH 3.0, RT, Method 1
[2] = MeCN 50.9% w/w, pH 3.6, 5° C., Method 1
[3] = MeCN 50.9% w/w, pH 3.6, 70° C., Method 1
[4] = MeCN 50.9% w/w, pH 3.6, RT, Method 1
[5] = MeCN 50.9% w/w, pH 4.3, 5° C., Method 1
[6] = MeCN 50.9% w/w, pH 4.3, 70° C., Method 1
[7] = MeCN 50.9% w/w, pH 4.3, RT, Method 1
[8] = MeCN 50.9% w/w, pH 4.9, 5° C., Method 1
[9] = MeCN 50.9% w/w, pH 4.9, 70° C., Method 1
[10] = MeCN 50.9% w/w, pH 4.9, RT, Method 1
[11] = MeCN 50.9% w/w, pH 5.6, 5° C., Method 1
[12] = MeCN 50.9% w/w, pH 5.6, 70° C., Method 1
[13] = MeCN 50.9% w/w, pH 5.6, RT, Method 1
[14] = MeCN 50.9% w/w, pH 6.2, 5° C., Method 1
[15] = MeCN 50.9% w/w, pH 6.2, 70° C., Method 1
[16] = MeCN 50.9% w/w, pH 6.2, RT, Method 1
[17] = MeCN 50.9% w/w, pH 6.9, 5° C., Method 1
[18] = MeCN 50.9% w/w, pH 6.9, 70° C., Method 1
[19] = MeCN 50.9% w/w, pH 6.9, RT, Method 1
[20] = MeCN 50.9% w/w, pH 7.5, 5° C., Method 1
[21] = MeCN 50.9% w/w, pH 7.5, 70° C., Method 1
[22] = MeCN 50.9% w/w, pH 7.5, RT, Method 1
[23] = MeCN 50.9% w/w, pH 8.0, 70° C., Method 1 (evaporation)
[24] = MeCN 50.9% w/w, pH 8.0, RT, Method 1
[25] = MeCN 50.9% w/w, pH 8.5, 70° C., Method 1 (evaporation)
[26] = MeCN 50.9% w/w, pH 8.5, RT, Method 1
[27] = MeCN 50.9% w/w, pH 9.0, 70° C., Method 1 (evaporation)
[28] = MeCN 50.9% w/w, pH 9.0, RT, Method 1
[29] = MeCN 50.9% w/w, pH 9.5, 70° C., Method 1 (evaporation)
[30] = MeCN 50.9% w/w, pH 9.5, RT, Method 1
[31] = MeCN 50.9% w/w, pH 10.0, 70° C., Method 1 (evaporation)
[32] = MeCN 50.9% w/w, pH 10.0, RT, Method 1
[33] = MeCN 50.9% w/w, pH 10.5, 70° C., Method 1 (evaporation)
[34] = MeCN 50.9% w/w, pH 10.5, RT, Method 1
[35] = MeCN 50.9% w/w, pH 11.0, 70° C., Method 1 (evaporation)
[36] = MeCN 50.9% w/w, pH 11.0, RT, Method 1
[37] = MeCN 57.3% w/w, pH 3.0, 5° C., Method 1

Peptide concentration after 5 min (MeCN 50.9% w/w, pH 3.0, 70° C., Method 1): 1.0 mg/mL
Peptide concentration after 5 min [1]: 0.6 mg/mL
Peptide concentration after 180 min [1]: 1.2 mg/mL
Peptide concentration after 24 h [1]: 0.1 mg/mL
Peptide concentration after 5 min [2]: 0.2 mg/mL
Peptide concentration after 180 min [2]: 0.5 mg/mL
Peptide concentration after 24 h [2]: 0.7 mg/mL
Peptide concentration after 5 min [3]: 0.5 mg/mL
Peptide concentration after 180 min [3]: 0.9 mg/mL
Peptide concentration after 5 min [4]: 0.3 mg/mL
Peptide concentration after 180 min [4]: 0.4 mg/mL
Peptide concentration after 24 h [4]: 0.4 mg/mL
Peptide concentration after 5 min [5]: 0.2 mg/mL
Peptide concentration after 180 min [5]: 0.3 mg/mL
Peptide concentration after 24 h [5]: 0.4 mg/mL
Peptide concentration after 5 min [6]: 0.6 mg/mL
Peptide concentration after 180 min [6]: 0.9 mg/mL
Peptide concentration after 5 min [7]: 0.2 mg/mL
Peptide concentration after 180 min [7]: 0.3 mg/mL
Peptide concentration after 24 h [7]: 0.2 mg/mL
Peptide concentration after 5 min [8]: 0.3 mg/mL
Peptide concentration after 180 min [8]: 0.4 mg/mL
Peptide concentration after 24 h [8]: 0.3 mg/mL
Peptide concentration after 5 min [9]: 0.5 mg/mL
Peptide concentration after 180 min [9]: 0.9 mg/mL
Peptide concentration after 5 min [10]: 0.2 mg/mL
Peptide concentration after 180 min [10]: 0.3 mg/mL
Peptide concentration after 24 h [10]: 0.2 mg/mL
Peptide concentration after 5 min [11]: 0.4 mg/mL
Peptide concentration after 180 min [11]: 0.7 mg/mL
Peptide concentration after 24 h [11]: 0.6 mg/mL
Peptide concentration after 5 min [12]: 1.0 mg/mL
Peptide concentration after 180 min [12]: 1.5 mg/mL
Peptide concentration after 5 min [13]: 0.5 mg/mL
Peptide concentration after 180 min [13]: 0.7 mg/mL
Peptide concentration after 24 h [13]: 0.4 mg/mL
Peptide concentration after 5 min [14]: 0.6 mg/mL
Peptide concentration after 180 min [14]: 0.9 mg/mL
Peptide concentration after 24 h [14]: 0.9 mg/mL
Peptide concentration after 5 min [15]: 1.0 mg/mL
Peptide concentration after 180 min [15]: 2.0 mg/mL
Peptide concentration after 5 min [16]: 0.7 mg/mL
Peptide concentration after 180 min [16]: 0.8 mg/mL
Peptide concentration after 24 h [16]: 0.7 mg/mL
Peptide concentration after 5 min [17]: 0.6 mg/mL
Peptide concentration after 180 min [17]: 1.4 mg/mL
Peptide concentration after 24 h [17]: 1.7 mg/mL
Peptide concentration after 5 min [18]: 2.2 mg/mL
Peptide concentration after 180 min [18]: 3.6 mg/mL
Peptide concentration after 5 min [19]: 0.6 mg/mL
Peptide concentration after 180 min [19]: 1.5 mg/mL
Peptide concentration after 24 h [19]: 0.0 mg/mL
Peptide concentration after 5 min [20]: 1.0 mg/mL
Peptide concentration after 180 min [20]: 3.0 mg/mL
Peptide concentration after 24 h [20]: >4.0 mg/mL
Peptide concentration after 5 min [21]: >4.0 mg/mL
Peptide concentration after 180 min [21]: >4.0 mg/mL
Peptide concentration after 5 min [22]: 1.0 mg/mL
Peptide concentration after 180 min [22]: >4.0 mg/mL
Peptide concentration after 24 h [22]: >4.0 mg/mL
Peptide concentration after 5 min [23]: 3.7 mg/mL
Peptide concentration after 180 min [23]: >4.0 mg/mL
Peptide concentration after 5 min [24]: 0.7 mg/mL
Peptide concentration after 180 min [24]: 3.8 mg/mL
Peptide concentration after 24 h [24]: >4.0 mg/mL
Peptide concentration after 5 min [25]: 2.9 mg/mL
Peptide concentration after 180 min [25]: >4.0 mg/mL
Peptide concentration after 5 min [26]: 1.0 mg/mL
Peptide concentration after 180 min [26]: 3.7 mg/mL
Peptide concentration after 24 h [26]: >4.0 mg/mL
Peptide concentration after 5 min [27]: 1.8 mg/mL
Peptide concentration after 180 min [27]: >4.0 mg/mL
Peptide concentration after 5 min [28]: 0.7 mg/mL
Peptide concentration after 180 min [28]: 2.8 mg/mL
Peptide concentration after 24 h [28]: >4.0 mg/mL
Peptide concentration after 5 min [29]: >4.0 mg/mL
Peptide concentration after 180 min [29]: >4.0 mg/mL
Peptide concentration after 5 min [30]: 1.6 mg/mL
Peptide concentration after 180 min [30]: >4.0 mg/mL
Peptide concentration after 24 h [30]: 4.0 mg/mL
Peptide concentration after 5 min [31]: >4.0 mg/mL
Peptide concentration after 180 min [31]: >4.0 mg/mL
Peptide concentration after 5 min [32]: 1.9 mg/mL
Peptide concentration after 180 min [32]: >4.0 mg/mL
Peptide concentration after 24 h [32]: 3.9 mg/mL
Peptide concentration after 5 min [33]: 3.9 mg/mL
Peptide concentration after 180 min [33]: >4.0 mg/mL
Peptide concentration after 5 min [34]: 1.0 mg/mL
Peptide concentration after 180 min [34]: 3.7 mg/mL
Peptide concentration after 24 h [34]: >4.0 mg/mL
Peptide concentration after 5 min [35]: 2.6 mg/mL
Peptide concentration after 180 min [35]: >4.0 mg/mL
Peptide concentration after 5 min [36]: 0.8 mg/mL
Peptide concentration after 180 min [36]: >4.0 mg/mL
Peptide concentration after 24 h [36]: >4.0 mg/mL
Peptide concentration after 5 min [37]: 0.7 mg/mL
Peptide concentration after 180 min [37]: 1.2 mg/mL
Peptide concentration after 24 h [37]: 1.5 mg/mL
Peptide concentration after 5 min (MeCN 57.3% w/w, pH 3.0, 70° C., Method 1): 0.9 mg/mL
Compound: CCCCCCCCCCCCCCCC(=O)N[C@@H](CCC(=O)NCCCC[C@H](NC(=O)[C@H](C)NC(=O)[C@H](C)NC(=O)[C@H](CCC(N)=O)NC(=O)CNC(=O)[C@H](CCC(=O)O)NC(=O)[C@H](CC(C)C)NC(=O)[C@H](Cc1ccc(O)cc1)NC(=O)[C@H](CO)NC(=O)[C@H](CO)NC(=O)[C@@H](NC(=O)[C@H](CC(=O)O)NC(=O)[C@H](CO)NC(=O)[C@@H](NC(=O)[C@H](Cc1ccccc1)NC(=O)[C@@H](NC(=O)CNC(=O)[C@H](CCC(=O)O)NC(=O)[C@H](C)NC(=O)[C@@H](N)Cc1cnc[nH]1)[C@@H](C)O)[C@@H](C)O)C(C)C)C(=O)N[C@@H](CCC(=O)O)C(=O)N[C@@H](Cc1ccccc1)C(=O)N[C@H](C(=O)N[C@@H](C)C(=O)N[C@@H](Cc1c[nH]c2ccccc12)C(=O)N[C@@H](CC(C)C)C(=O)N[C@H](C(=O)N[C@@H](CCCNC(=N)N)C(=O)NCC(=O)N[C@@H](CCCNC(=N)N)C(=O)NCC(=O)O)C(C)C)[C@@H](C)CC)C(=O)O [liraglutide, Arg34,Lys26-(N-epsilon-(gamma-L-glutamyl(N-alfa-hexadecanoyl)))-GLP-1(7-37)]
